For part of these data: Results from cells or extracts need not show a direct contact. Tags and fusion partners may be left off the protein sequences shown. Construct, isoform or probe ends are uncertain for at least one entry. No signal at the amounts used counts as a negative.
How the values were obtained:
[1] = molecular target: T1, PRDM14 (native, hESC nuclear extract) (Homo sapiens) (UniProt Q9GZV8); test: EMSA; conditions: protein in an extract, label: 5' biotin on sense strand
T1 sequence (limits assumed): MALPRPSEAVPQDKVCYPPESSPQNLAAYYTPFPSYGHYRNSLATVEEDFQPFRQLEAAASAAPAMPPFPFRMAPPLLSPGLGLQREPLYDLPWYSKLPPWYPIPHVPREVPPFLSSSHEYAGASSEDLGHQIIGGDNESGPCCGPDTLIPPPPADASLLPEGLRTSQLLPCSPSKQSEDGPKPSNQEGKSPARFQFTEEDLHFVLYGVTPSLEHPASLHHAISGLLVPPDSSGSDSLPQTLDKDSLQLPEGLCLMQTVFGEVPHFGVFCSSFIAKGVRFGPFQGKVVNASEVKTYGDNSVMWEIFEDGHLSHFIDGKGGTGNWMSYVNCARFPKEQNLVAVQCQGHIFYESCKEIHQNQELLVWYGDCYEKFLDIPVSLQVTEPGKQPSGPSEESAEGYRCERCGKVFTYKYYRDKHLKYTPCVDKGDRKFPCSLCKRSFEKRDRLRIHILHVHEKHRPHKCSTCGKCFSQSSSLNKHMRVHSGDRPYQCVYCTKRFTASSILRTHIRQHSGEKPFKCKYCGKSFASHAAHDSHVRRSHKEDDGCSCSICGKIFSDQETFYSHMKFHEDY

[2] = molecular target: T2, PRDM14 DNA binding domain (C-terminal 179 aa) (Homo sapiens) (UniProt Q9GZV8); test: EMSA; conditions: mutations in motif disrupt complex; purified recombinant protein; protein details: His tag, pET42b, E. coli BL21; label: 5' biotin on sense strand; variant of CR2 probe
T2 sequence: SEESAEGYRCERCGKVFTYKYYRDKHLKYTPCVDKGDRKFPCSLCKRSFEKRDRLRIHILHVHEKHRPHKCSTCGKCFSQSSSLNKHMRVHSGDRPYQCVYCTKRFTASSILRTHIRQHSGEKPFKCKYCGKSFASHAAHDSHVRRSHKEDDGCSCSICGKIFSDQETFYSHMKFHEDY

| Sequence | binding result ([1]; hESC nuclear extract, supershift assay with PRDM14 antibody) | binding result [2] | binding result ([1]; mutations in motif disrupt complex, variant of CR2 probe) |
| --- | --- | --- | --- |
| CAGCTCTAACCCTAAACAAGTGCTCAACCCTTGAATGGGCCTGGATGGCT (double strand) [CR2 probe] | binds | – | – |
| CATTTTTAACCCTAAACAAGTTTTTAACCCTTGAATGGGCCTGGATGGCT (double strand) [CR2 mutant probe] | – | no binding | no binding |
